# Some of the results follow.
# Chains of the proteins cited; added tags and fusions are not shown. Lines headed by an entry give the natural chain unless they say otherwise; changes in a name come on top.
# UniProt O95239: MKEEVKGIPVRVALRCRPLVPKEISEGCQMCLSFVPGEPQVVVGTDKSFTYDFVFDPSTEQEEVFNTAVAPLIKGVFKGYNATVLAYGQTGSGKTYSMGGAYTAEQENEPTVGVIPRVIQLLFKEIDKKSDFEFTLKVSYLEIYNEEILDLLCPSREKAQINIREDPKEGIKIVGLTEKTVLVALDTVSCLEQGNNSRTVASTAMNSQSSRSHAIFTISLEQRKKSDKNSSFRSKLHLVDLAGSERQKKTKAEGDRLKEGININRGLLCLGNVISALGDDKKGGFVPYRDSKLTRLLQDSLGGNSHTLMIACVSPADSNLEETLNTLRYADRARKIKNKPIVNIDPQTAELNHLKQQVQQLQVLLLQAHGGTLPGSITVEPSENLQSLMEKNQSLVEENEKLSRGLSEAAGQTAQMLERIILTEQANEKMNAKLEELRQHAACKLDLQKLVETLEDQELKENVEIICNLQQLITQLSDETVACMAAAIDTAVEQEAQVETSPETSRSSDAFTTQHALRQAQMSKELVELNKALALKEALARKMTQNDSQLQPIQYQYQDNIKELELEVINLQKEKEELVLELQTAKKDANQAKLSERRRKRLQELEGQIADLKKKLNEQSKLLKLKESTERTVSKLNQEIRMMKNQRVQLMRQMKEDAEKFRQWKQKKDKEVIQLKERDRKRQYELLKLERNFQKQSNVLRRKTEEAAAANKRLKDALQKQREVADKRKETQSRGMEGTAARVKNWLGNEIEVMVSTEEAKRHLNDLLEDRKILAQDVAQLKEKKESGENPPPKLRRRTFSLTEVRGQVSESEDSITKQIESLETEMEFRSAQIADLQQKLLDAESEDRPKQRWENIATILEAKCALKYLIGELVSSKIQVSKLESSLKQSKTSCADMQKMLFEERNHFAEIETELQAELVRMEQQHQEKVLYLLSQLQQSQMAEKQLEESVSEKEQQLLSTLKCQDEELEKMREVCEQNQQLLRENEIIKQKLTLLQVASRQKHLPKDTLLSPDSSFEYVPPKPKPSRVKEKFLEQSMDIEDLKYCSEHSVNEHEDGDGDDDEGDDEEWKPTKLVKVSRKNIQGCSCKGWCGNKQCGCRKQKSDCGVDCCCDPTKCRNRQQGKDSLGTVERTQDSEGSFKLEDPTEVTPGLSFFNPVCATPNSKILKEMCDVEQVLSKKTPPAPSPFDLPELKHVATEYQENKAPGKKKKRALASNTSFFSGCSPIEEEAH
# UniProt P28838: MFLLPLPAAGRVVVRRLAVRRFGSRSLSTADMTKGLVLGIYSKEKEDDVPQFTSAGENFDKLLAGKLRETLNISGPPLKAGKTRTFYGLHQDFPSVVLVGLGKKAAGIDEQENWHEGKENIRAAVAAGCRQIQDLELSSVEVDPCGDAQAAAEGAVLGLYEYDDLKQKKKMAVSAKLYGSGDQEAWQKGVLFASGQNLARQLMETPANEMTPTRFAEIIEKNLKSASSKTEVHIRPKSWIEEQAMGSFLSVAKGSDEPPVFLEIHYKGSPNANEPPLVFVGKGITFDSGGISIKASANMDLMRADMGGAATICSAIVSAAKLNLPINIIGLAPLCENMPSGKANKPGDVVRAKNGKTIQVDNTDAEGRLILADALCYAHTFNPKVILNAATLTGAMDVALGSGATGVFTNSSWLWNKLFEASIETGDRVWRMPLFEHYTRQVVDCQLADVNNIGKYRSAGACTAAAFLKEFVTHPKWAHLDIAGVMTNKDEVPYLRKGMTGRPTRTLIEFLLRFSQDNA
# UniProt Q9P2J5: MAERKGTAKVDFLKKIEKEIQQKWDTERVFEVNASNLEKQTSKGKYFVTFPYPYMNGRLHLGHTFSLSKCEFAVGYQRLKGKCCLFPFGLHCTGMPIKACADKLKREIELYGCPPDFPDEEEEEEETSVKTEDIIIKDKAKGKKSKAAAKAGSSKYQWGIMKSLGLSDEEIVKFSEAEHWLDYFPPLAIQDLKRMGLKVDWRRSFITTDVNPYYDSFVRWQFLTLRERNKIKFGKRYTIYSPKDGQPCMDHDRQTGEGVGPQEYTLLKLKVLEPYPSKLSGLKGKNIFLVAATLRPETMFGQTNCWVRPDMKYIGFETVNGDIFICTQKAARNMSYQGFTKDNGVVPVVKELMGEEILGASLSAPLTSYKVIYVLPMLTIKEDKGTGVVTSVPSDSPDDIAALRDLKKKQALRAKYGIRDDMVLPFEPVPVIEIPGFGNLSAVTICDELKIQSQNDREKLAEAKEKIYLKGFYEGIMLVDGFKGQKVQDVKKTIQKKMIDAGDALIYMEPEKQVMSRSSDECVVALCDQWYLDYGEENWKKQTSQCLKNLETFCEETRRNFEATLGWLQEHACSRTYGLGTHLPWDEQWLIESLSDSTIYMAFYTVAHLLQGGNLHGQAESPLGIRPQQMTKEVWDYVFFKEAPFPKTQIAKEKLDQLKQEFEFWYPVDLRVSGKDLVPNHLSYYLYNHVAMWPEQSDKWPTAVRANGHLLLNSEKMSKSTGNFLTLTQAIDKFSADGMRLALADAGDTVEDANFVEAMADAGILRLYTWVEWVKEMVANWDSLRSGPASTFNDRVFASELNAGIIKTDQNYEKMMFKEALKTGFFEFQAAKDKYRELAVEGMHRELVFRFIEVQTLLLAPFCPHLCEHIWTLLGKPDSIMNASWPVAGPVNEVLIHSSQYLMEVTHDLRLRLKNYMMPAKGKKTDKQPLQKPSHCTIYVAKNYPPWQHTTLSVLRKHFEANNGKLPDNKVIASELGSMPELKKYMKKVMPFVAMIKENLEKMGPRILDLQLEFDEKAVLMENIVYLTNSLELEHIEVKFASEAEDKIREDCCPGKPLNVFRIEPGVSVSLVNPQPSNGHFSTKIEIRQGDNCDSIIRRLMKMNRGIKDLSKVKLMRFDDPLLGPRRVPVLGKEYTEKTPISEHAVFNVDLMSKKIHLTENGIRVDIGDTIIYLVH
# UniProt Q16719: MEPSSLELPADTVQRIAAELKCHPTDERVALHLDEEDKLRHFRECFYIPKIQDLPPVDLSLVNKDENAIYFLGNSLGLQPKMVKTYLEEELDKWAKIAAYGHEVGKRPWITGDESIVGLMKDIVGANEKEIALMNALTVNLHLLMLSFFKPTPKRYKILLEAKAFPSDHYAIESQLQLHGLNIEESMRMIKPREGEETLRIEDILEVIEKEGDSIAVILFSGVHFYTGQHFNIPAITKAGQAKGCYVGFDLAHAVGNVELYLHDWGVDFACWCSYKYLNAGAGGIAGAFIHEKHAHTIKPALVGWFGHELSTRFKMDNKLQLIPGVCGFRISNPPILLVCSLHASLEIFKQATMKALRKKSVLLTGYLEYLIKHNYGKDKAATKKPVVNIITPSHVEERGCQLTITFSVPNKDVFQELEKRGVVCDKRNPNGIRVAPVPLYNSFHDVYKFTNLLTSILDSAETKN
# UniProt O00629, whole entry, looked up: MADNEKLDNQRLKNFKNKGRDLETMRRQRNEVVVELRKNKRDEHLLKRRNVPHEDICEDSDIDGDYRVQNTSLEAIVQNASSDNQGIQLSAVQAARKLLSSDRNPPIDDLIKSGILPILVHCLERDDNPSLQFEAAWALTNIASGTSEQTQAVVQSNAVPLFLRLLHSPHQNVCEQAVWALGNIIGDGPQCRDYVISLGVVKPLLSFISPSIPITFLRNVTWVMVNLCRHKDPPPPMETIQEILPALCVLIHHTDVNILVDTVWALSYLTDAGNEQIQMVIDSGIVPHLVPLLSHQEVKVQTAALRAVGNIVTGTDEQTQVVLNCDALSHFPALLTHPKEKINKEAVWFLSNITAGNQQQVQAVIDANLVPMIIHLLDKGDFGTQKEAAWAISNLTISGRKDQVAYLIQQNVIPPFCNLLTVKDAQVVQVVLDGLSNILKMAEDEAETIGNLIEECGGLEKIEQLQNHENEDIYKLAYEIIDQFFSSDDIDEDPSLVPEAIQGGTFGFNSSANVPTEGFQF
# UniProt Q8N4N3: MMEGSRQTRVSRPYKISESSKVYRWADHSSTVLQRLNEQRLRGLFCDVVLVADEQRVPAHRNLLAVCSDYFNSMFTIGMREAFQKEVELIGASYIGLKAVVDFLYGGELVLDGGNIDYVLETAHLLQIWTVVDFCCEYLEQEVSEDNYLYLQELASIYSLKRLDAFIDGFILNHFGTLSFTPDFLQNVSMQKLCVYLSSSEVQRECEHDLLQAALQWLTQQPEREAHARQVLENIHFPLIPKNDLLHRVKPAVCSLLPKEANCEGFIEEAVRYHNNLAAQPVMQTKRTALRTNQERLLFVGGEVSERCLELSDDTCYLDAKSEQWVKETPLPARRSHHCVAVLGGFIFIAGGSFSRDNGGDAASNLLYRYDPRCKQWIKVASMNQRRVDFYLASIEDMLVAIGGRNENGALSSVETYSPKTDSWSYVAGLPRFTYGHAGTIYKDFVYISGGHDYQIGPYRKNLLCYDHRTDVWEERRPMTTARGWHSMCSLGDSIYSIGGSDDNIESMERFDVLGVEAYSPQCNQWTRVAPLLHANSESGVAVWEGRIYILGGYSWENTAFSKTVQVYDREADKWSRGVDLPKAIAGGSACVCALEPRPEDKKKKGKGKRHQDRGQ
# UniProt Q02241: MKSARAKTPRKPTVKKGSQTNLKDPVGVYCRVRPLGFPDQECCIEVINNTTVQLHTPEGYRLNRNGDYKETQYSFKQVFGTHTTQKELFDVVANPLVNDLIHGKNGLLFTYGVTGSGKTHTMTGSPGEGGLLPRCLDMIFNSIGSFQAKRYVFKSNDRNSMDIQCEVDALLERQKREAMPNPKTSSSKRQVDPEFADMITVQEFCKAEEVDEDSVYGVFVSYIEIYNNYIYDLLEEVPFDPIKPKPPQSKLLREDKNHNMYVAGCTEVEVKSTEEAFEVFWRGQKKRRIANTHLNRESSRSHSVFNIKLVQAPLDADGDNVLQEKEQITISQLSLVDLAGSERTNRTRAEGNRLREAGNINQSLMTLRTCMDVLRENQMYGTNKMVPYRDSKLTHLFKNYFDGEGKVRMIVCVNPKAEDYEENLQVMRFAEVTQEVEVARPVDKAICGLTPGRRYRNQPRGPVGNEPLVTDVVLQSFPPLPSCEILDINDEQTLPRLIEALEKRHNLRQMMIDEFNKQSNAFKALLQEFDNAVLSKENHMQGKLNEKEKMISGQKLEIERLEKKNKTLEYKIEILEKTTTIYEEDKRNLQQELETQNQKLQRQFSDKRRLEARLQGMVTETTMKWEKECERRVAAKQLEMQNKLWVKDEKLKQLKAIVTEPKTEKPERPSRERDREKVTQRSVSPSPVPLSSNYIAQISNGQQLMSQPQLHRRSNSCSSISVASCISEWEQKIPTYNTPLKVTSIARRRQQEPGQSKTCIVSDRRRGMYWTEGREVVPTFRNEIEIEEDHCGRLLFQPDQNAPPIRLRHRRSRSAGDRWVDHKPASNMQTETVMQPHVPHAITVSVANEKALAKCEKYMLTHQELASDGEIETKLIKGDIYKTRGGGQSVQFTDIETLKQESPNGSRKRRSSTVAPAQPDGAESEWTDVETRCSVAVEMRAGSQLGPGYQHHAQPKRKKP
# UniProt Q96JN0: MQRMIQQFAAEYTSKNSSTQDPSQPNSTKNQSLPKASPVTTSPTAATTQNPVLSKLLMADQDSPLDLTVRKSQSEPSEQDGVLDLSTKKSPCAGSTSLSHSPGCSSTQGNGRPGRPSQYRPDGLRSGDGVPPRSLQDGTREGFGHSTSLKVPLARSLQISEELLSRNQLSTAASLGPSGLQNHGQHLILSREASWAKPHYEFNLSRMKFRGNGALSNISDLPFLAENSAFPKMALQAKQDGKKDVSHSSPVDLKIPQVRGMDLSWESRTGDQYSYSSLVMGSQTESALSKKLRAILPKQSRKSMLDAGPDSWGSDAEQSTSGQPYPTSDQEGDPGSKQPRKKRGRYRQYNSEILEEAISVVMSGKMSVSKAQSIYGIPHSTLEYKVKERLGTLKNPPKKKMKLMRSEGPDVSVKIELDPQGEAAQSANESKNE
# Compound: CC1Cc2ccccc2N1C(=O)C1CCCN(C1)C(=O)CCl (mixture of isomers) [TRIM25 ligand 11 (diastereomer mixture)]
# Experiment: probe-labelled cysteine peptide fold change vs DMSO (competition) (log2 fold change); higher = less target engagement (more negative = stronger competition)
# Conditions: THP-1, incubation time: 4 h
# 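Note: competitive chemoproteomic profiling in live THP-1 cells with an iodoacetamide desthiobiotin (IA-DTB) probe, comparing probe-labelled peptide intensities in compound-treated cells against DMSO-treated controls.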
Target,probe-labelled cysteine peptide fold change (10 µM),probe-labelled cysteine peptide fold change (50 µM)
LDHD_Q86WU2_392_GYSTDVCVPISR (UniProt Q86WU2),-0.0751,0.00616
KIF2A_O00139_420_LIDIGNSCR (UniProt O00139),-0.0824,0.0319
LARP4_Q71RC2_65_VWQEIAPGNTDATPVTHGTESSWHEIAATSGAHPEGNAELSEDICK (UniProt Q71RC2),0.259,-0.436
LAS1L_Q9Y4W2_306_VECVLAELK (UniProt Q9Y4W2),0.0289,0.0763
KPNB1_Q14974_765_ESCLEAYTGIVQGLKGDQENVHPDVMLVQPR (UniProt Q14974),0.0989,-0.218
KPNB1_Q14974_359_AAGVCLMLLATCCEDDIVPHVLPFIK (UniProt Q14974),-0.313,-0.0267
KIF4A_O95239_269_GLLCLGNVISALGDDKK (UniProt O95239),-0.138,-0.0945
LACTB_P83111_154_EVWSEGLGYADVENRVPCKPETVMR (UniProt P83111),0.11,0.0521
KMT2C_Q8NEZ4_4403_CCFCHEEGDGLTDGPAR (UniProt Q8NEZ4),0.0194,0.0926
LCP1_P13796_101_EGICAIGGTSEQSSVGTQHSYSEEEK (UniProt P13796),0.148,-0.239
LAP3_P28838_462_SAGACTAAAFLK (UniProt P28838),-0.0234,-0.105
LARP1_Q6PKG0_238_NGDEDCQR (UniProt Q6PKG0),0.15,0.117
LARS_Q9P2J5_554_NLETFCEETR (UniProt Q9P2J5),-0.00821,-0.0556
KPNA6_O60684_467_SGSGVNPYCGLIEEAYGLDK (UniProt O60684),0.104,0.08
KYNU_Q16719_425_GVVCDK (UniProt Q16719),-0.00461,-0.0807
LAP3_P28838_376_LILADALCYAHTFNPK (UniProt P28838),-0.0305,0.105
LCMT1_Q9UIC8_316+318_HYCLCWATK (UniProt Q9UIC8),0.0295,0.0958
KMT2D_O14686_214_TLQLLCPEHSEGAAYLEEAR (UniProt O14686),0.206,0.175

# An excerpt of these results, as tab-separated lines.
Target	probe-labelled cysteine peptide fold change (10 µM)	probe-labelled cysteine peptide fold change (50 µM)
KPNB1_Q14974_359_AAGVCLMLLATCCEDDIVPHVLPFIK (UniProt Q14974)	-0.313	-0.0267
KIF4A_O95239_269_GLLCLGNVISALGDDKK (UniProt O95239)	-0.138	-0.0945

# Later entries:

Target,probe-labelled cysteine peptide fold change (10 µM),probe-labelled cysteine peptide fold change (50 µM)
LCP1_P13796_206_KLTPFTIQENLNLALNSASAIGCHVVNIGAEDLK (UniProt P13796),-0.164,0.0204
LAGE3_Q14657_23_GGHSCR (UniProt Q14657),-0.174,-0.124
LARP4B_Q92615_167_TLEFCLSR (UniProt Q92615),-0.169,-0.00403
LARS_Q9P2J5_554_NLETFCEETRR (UniProt Q9P2J5),-0.075,-0.119
LAMTOR5_O43504_23+33_NPSIVGVLCTDSQGLNLGCR (UniProt O43504),-0.148,0.226
KIF5B_P33176_7_ADLAECNIK (UniProt P33176),0.0117,0.0526
KIF1C_O43896_685_SCEESWR (UniProt O43896),0.0708,-0.145
KPNA4_O00629_122_SGILPILVHCLER (UniProt O00629),0.124,0.197
LAP3_P28838_335_LNLPINIIGLAPLCENMPSGK (UniProt P28838),-0.118,-0.173
LARS2_Q15031_578_FFSHFCHDQK (UniProt Q15031),0.293,0.211
KIF4A_O95239_269_GLLCLGNVISALGDDK (UniProt O95239),0.0859,0.106
LDHA_P00338_131_YSPNCK (UniProt P00338),0.206,0.232
KLHL36_Q8N4N3_206_ECEHDLLQAALQWLTQQPER (UniProt Q8N4N3),0.377,0.113
LARS_Q9P2J5_92_CCLFPFGLHCTGMPIK (UniProt Q9P2J5),0.0953,-0.109
KIF23_Q02241_165_NSMDIQCEVDALLER (UniProt Q02241),-0.111,-0.174
KYNU_Q16719_45_HFRECFYIPK (UniProt Q16719),-0.542,-0.3
KLHL26_Q53HC5_383_SGEGAVDACYR (UniProt Q53HC5),0.33,0.211
LCOR_Q96JN0-3_1334_MECPDALAVESKPSR (UniProt Q96JN0),-0.101,-0.331
